# Measurements: the supplement of paper PMC4604168 (melanoma cell lines)
# Some of the results follow. Many values rest on one well or one pass, so single values are uncertain.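 The apoptosis fraction was the count of cleaved-PARP antibody-stained nuclei relative to all DNA-stained nuclei, imaged in 1,536-well plates. Screening doses were set so most cells survived, and baseline and induced cleaved-PARP levels vary greatly across cell lines.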
# Tested on: CBRC017 (line from a melanoma biopsy)
# Experiment: cleaved PARP positive nuclei fraction relative to DMSO control; melanoma cells; higher = more apoptosis
# Details: library dose: low library concentration; 72 h
row,Structure (SMILES),cleaved PARP positive nuclei fraction [%]
1,"CCN(CC)CCNC(=O)c1c(C)[nH]c(/C=C2\C(=O)Nc3ccc(F)cc32)c1C [sunitinib] + Cn1cc(/C=C2\C(=O)Nc3cccnc32)c2ccccc21 [GW441756] (first compound 0.4 µM, partner dose 0.4 µM)",83.5
2,"CC1(C)CCC(c2ccc(Cl)cc2)=C(CN2CCN(c3ccc(C(=O)NS(=O)(=O)c4ccc(N[C@H](CCN5CCOCC5)CSc5ccccc5)c(S(=O)(=O)C(F)(F)F)c4)cc3)CC2)C1 + c1cc(-c2cnn3cc(-c4ccc(OCCN5CCCCC5)cc4)cnc23)ccn1 [Dorsomorphin] (first compound 0.4 µM, partner dose 0.4 µM)",543
3,"C[C@@H](N)c1ccc(C(=O)Nc2ccnc3[nH]ccc23)cc1 + COC(=O)c1sccc1S(=O)(=O)Nc1ccc(Nc2ccccc2)cc1OC [GSK0660] (first compound 0.4 µM, partner dose 1 µM)",87
4,"CCCCCCCCc1ccc(CCC(N)(CO)CO)cc1 [fingolimod] + COc1ccc(-c2ccc3c(N4CCOCC4)nc(N4C[C@@H](C)O[C@@H](C)C4)nc3n2)cc1CO [KU0063794] (first compound 2 µM, partner dose 0.02 µM)",428
5,"CCCCCCCCc1ccc(CCC(N)(CO)CO)cc1 [fingolimod] + N#Cc1c(O)c2c(-c3ccc(-c4ccccc4O)cc3)csc2[nH]c1=O [A769662] (first compound 2 µM, partner dose 2 µM)",219
